Results published in patent US6436903B1, “Immunomodulating compounds comprising d-isomers of amino acids” (Stanford University (Board of Trustees of the Leland …, priority 1996, dated 2002).
At least one peptide structure holds a part that was inferred or is arguable (an end, a ring closure or a residue). No end group written: not given here.

Tests used:
draining lymph nodes = experiment: Lymph node proliferation assay (footpad challenge with allogeneic versus syngeneic splenocytes); type: in vivo, rat; conditions: treated within 24 hours of footpad injection
Protocol: ACI or PVG rats (200 g) were injected intravenously with peptides dissolved in saline on day 0. On the indicated days thereafter, the left rear footpads of the rats were injected with 5×10^6 splenocytes from a syngeneic donor and the right rear footpads with 5×10^6 splenocytes from an allogeneic Lew donor (Moeller etal. Transplantation (1993)55:650). See also Twist and Barnes Transplantation (1973) 15:182; Fanslow et al. Science (1990) 248:739). Seven days after the footpad injection, the animals were sacrificed and the popliteal lymph nodes removed. A single cell suspension was prepared, and the cell number determined using a hemocytometer.
PVG or ACI rats (3 per group) were given a single intravenous injection of 2 mg of each of the four peptides or saline. On the day of treatment, or on days 1, 7, or 10 after treatment, the right footpads were injected with 5×10^6 syngeneic splenocytes while the left footpads were injected with 5×10^6 allogeneic Lew splenocytes. Seven days after the footpad injections, the draining lymph nodes were removed, a single cell suspension was prepared, and the cell number determined.

[1] = test system: abdominal heterotopic heart allografts; experiment: Cardiac allograft survival in rats (Lew heart into ACI recipients); type: in vivo, rat
Description: Vascularized cardiac allografts were heterotypically transplanted into the abdomen of recipient rats using a modification of the technique of Ono and Lindsay (Ono and Lindsey J. Thorac. Cardiovasc. Surg. (1969) 57:225). Abdominal allografts were palpated on a daily basis to assess graft function, and rejection was deemed complete when palpable ventricular contractions ceased.
Cyclosporin A (CsA, Sandoz Pharmaceuticals Corporation, Base, Switzerland) dissolved in olive oil was given orally through a gavage tube at the indicated dose. Peptides were dissolved in water or saline and given intravenously or by gavage as indicated.
Since the B7.75-84 and B2702.75-84 peptides blocked cellular immunity in vivo, we examined their effects on allograft survival in rats. ACI (RT1^a) recipients were given abdominal heterotopic heart allografts from Lew donors (Moeller et al. 1993, supra; Ono and Lindsey. 1969, supra). Graft function was monitored by daily abdominal palpation, and rejection was scored as complete when the palpable ventricular contractions ceased.

[2] = test system: second heart or skin allografts; experiment: Donor specificity of tolerance: second heart or skin allografts in rats retaining grafts; type: in vivo, rat; conditions: rats with heart grafts >100 days, no additional peptide or CsA, n=4
thymus and spleen cells = experiment: Immunologic parameters in peptide treated or tolerant rats; conditions: rat, in vivo

RESLRNLRGY [Peptide B7.75-84]
ratio of the number of cells recovered, allogeneic versus syngeneic side (draining lymph nodes): A similar ratio
animals with tolerance ([1]; 10 mg peptide on days −14, −12, −10 and −7 followed by CsA on days 04): 23/29
allograft survival ([1]; peptide alone, 2-5 doses in the two weeks before or the 4 days following the transplant): 7-13 days
Lew skin graft survival without signs of rejection [2]: > 200 days
suppression of an alloresponse in naive rats by splenocytes from tolerant rats (thymus and spleen cells): unable to directly suppress an alloresponse in naive rats
